Test results taken from the supplement of paper PMC12819154, “High-throughput peptide-centric local stability assay extends protein–ligand identification to membrane proteins, tissues and bacteria” (Nature Structural & Molecular Biology, 2025).
Some of the results follow. Most entries show no effect beyond the scatter of the controls.

Protein sequences, listed by entry. Tags and fused reporters are not part of them. Lines headed by an entry give the natural chain unless they say otherwise; changes in a name come on top.
UniProt Q16825: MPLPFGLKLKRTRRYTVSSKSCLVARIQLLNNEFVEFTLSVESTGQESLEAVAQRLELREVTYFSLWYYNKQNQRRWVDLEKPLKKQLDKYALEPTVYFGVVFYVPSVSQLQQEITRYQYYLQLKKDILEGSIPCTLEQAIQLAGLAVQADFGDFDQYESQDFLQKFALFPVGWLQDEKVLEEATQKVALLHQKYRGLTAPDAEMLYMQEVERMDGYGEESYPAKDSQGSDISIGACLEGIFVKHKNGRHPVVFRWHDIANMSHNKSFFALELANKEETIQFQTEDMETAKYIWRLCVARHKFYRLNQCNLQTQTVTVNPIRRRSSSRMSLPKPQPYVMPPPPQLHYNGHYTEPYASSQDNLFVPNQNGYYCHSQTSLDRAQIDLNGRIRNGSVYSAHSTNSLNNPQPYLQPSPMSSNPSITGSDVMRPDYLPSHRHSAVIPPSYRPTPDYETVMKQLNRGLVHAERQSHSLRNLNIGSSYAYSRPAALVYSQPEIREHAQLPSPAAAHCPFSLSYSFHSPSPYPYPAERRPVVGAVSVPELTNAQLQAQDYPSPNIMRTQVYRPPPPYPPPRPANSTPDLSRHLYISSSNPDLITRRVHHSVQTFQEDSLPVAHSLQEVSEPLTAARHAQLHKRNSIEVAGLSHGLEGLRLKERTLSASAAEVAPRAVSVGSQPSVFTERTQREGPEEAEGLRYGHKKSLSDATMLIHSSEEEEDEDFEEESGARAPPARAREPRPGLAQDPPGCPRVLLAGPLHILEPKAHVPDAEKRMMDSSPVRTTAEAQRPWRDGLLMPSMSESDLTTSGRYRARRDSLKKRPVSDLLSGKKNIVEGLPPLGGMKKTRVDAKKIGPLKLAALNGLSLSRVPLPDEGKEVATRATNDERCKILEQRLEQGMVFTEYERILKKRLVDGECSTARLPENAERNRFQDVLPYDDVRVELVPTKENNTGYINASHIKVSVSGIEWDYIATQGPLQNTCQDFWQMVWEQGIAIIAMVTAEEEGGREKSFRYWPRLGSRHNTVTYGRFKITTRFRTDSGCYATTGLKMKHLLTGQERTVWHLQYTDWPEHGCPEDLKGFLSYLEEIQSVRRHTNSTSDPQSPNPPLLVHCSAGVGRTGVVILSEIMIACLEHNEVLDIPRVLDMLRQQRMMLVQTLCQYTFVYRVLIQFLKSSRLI
UniProt Q16718, whole entry: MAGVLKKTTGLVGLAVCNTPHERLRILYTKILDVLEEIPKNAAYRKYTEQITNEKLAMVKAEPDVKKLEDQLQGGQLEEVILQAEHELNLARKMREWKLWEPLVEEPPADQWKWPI
UniProt Q2QGD7: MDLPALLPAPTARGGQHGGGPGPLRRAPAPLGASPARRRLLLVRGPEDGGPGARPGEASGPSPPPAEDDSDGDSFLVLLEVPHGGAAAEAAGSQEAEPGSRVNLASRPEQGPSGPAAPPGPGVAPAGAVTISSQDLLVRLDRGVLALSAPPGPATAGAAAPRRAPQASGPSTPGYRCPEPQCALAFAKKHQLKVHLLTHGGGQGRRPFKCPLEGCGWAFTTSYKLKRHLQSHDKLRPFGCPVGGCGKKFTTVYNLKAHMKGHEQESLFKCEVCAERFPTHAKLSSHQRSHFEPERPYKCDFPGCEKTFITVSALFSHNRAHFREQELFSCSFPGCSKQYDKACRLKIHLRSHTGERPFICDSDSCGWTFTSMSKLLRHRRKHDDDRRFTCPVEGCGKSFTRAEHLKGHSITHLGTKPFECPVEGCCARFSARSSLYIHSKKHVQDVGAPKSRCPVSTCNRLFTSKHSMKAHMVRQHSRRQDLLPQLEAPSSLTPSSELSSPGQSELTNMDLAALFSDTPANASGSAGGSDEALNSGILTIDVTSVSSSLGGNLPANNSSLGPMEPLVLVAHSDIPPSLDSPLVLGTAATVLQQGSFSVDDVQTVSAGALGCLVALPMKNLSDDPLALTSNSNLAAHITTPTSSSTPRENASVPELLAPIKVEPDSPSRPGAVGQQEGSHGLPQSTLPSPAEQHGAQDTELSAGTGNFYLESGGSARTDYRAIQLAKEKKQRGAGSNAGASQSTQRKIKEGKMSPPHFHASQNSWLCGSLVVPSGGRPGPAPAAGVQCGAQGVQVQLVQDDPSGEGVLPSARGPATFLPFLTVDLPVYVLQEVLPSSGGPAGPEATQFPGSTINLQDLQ
UniProt Q15572: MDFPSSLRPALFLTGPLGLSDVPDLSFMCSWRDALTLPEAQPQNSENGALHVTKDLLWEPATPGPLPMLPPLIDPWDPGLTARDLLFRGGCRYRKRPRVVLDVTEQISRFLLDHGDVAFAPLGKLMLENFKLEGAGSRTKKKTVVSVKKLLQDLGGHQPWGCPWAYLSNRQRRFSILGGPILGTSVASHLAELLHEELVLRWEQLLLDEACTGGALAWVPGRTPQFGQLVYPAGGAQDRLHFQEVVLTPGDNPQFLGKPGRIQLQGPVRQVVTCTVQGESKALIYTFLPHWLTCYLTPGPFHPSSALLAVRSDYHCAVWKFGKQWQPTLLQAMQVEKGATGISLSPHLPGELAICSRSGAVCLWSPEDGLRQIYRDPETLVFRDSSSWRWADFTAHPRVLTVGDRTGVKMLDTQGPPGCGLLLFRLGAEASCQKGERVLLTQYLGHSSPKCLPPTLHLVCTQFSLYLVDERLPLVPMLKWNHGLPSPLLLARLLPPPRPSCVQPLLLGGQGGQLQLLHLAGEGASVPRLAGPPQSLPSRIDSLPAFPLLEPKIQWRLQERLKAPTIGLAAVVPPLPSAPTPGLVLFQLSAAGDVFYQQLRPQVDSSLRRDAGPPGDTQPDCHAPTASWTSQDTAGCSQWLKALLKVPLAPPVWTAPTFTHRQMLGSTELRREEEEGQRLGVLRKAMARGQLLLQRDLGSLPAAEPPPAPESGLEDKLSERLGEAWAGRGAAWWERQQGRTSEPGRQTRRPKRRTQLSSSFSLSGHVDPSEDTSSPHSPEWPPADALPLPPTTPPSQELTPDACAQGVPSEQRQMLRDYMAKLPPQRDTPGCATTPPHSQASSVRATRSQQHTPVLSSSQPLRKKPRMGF
UniProt Q16526: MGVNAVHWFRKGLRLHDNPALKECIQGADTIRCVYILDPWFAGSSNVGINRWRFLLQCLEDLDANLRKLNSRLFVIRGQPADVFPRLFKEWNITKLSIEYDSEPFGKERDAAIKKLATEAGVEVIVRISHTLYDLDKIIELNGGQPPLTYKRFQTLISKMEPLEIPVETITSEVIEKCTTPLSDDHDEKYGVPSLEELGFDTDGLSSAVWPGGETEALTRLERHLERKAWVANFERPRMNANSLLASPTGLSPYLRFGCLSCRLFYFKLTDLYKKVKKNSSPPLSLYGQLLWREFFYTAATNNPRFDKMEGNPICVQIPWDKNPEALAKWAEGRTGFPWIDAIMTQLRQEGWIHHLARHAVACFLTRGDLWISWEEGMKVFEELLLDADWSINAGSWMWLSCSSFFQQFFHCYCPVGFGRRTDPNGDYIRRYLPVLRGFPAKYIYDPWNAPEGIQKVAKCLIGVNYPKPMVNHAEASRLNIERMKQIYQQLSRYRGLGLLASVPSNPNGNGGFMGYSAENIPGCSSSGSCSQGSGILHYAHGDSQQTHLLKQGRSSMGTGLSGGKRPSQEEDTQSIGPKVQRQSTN
UniProt Q15819: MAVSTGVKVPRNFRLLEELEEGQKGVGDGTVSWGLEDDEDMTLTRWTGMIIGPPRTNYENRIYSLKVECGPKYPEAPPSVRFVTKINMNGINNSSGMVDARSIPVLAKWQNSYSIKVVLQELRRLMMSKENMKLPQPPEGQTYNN
UniProt Q309B1, whole entry: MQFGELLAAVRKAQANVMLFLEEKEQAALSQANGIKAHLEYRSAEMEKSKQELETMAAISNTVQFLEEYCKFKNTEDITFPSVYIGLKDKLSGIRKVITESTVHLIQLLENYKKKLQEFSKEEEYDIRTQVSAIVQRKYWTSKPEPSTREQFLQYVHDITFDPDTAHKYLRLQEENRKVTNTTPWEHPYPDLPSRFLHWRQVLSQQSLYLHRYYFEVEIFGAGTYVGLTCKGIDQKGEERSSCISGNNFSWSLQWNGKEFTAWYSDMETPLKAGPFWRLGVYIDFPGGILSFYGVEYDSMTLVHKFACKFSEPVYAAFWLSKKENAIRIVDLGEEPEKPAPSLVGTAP
UniProt Q32P44: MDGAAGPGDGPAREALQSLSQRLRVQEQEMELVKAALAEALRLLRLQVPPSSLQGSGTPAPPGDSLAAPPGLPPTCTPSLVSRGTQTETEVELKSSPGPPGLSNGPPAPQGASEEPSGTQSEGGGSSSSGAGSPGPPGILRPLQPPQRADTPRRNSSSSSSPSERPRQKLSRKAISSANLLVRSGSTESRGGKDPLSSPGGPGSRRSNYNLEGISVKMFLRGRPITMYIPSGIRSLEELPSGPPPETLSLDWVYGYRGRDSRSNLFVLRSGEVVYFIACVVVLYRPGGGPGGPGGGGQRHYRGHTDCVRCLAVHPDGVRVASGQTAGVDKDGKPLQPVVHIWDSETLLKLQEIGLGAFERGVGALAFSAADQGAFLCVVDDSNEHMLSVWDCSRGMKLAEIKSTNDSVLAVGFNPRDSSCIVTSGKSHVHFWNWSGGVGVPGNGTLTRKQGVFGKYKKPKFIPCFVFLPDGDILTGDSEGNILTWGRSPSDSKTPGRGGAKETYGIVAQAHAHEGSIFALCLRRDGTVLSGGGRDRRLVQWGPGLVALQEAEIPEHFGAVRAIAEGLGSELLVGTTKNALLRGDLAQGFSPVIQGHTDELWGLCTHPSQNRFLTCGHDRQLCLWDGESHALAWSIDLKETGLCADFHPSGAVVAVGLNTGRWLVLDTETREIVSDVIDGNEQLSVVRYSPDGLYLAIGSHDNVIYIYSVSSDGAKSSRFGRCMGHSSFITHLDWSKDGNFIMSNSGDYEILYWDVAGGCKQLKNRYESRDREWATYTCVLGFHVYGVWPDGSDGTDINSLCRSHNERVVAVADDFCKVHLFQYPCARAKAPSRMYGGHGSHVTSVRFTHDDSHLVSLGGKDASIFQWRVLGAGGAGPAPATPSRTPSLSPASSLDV
UniProt Q15327: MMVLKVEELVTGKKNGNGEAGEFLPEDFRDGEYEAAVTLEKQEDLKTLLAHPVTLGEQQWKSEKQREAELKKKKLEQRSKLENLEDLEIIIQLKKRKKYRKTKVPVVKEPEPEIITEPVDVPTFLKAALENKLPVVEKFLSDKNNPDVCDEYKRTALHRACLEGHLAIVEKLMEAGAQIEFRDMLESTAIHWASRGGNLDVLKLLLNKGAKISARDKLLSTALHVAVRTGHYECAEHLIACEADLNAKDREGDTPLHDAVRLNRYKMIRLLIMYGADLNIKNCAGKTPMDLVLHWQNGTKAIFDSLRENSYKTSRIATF
UniProt Q15562, whole entry: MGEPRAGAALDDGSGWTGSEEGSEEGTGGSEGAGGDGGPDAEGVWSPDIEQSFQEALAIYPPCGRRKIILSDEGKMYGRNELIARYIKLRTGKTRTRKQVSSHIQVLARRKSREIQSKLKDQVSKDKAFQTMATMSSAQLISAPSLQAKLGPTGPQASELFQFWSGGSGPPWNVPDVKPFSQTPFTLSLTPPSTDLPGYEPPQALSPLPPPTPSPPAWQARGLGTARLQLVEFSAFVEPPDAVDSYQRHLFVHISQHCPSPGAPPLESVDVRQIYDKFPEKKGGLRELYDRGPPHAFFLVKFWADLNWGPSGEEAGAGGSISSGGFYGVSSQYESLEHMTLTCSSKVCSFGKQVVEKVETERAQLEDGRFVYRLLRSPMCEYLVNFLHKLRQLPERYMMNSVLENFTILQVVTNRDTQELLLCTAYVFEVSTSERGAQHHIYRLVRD
UniProt Q16850: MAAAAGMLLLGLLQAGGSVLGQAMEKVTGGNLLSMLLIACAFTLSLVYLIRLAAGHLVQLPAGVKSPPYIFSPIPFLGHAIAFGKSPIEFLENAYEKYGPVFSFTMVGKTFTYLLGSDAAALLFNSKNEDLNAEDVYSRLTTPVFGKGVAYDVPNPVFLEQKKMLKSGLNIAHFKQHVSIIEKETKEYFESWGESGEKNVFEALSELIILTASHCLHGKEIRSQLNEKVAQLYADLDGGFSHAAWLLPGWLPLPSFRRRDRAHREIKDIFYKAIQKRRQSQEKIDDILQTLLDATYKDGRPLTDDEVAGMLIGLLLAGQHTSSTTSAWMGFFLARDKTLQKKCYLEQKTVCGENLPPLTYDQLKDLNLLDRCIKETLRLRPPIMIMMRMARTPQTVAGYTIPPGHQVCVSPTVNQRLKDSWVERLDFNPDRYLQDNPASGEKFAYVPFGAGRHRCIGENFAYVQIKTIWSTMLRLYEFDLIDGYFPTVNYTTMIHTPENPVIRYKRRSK
UniProt Q15543, whole entry: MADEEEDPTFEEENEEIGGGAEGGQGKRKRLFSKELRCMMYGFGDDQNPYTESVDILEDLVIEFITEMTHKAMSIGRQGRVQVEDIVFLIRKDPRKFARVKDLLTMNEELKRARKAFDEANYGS
UniProt Q2NKX9: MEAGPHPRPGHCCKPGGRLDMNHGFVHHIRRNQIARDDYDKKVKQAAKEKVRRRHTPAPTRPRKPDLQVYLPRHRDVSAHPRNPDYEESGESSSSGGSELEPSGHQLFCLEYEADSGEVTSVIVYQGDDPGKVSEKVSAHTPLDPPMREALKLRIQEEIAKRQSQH

compound: Cc1nc(Nc2ncc(C(=O)Nc3c(C)cccc3Cl)s2)cc(N2CCN(CCO)CC2)n1 [dasatinib]; test: log2 fold change of tryptic peptide abundance, ligand vs vehicle (limited proteolysis) (log2 ratio); higher = more trypsin-susceptible (destabilized); details: ligand concentration: 5 uM; sample: K562 cleared lysate

Target	log2 fold change
CLPP (peptide sequence: QLYNIYAK, peptide start residue: 204) (UniProt Q16740)	-0.442
QPRT (peptide sequence: YGLLVGGAASHR, peptide start residue: 150) (UniProt Q15274)	-0.0984
UniProt Q16825 (peptide sequence: PGLAQDPPGCPR, peptide start residue: 737)	0.587
NDUFA5 (peptide sequence: KTTGLVGLAVCNTPHER, peptide start residue: 7) (UniProt Q16718)	0.381
EEA1 (peptide sequence: LREAQNDLEQVLR, peptide start residue: 504) (UniProt Q15075)	0.485
UniProt Q2QGD7 (peptide sequence: GGQHGGGPGPLR, peptide start residue: 14)	-1.02
ZNF239 (peptide sequence: VHTGEKPYECEECGMSFSQR, peptide start residue: 312) (UniProt Q16600)	-0.526
TPD52L1 (peptide sequence: VETTVTSLK, peptide start residue: 154) (UniProt Q16890)	0.1
TAF1C (peptide sequence: VLLTQYLGHSSPK, peptide start residue: 438) (UniProt Q15572)	0.537
DHCR24 (peptide sequence: LTQGETLR, peptide start residue: 368) (UniProt Q15392)	0.277
UniProt Q15018 (peptide sequence: VQAVCADVEKSER, peptide start residue: 220)	0.22
UniProt Q15651 (peptide sequence: KSPENTEGK, peptide start residue: 5)	0.126
CWF19L2 (peptide sequence: DKRPGSLETCR, peptide start residue: 338) (UniProt Q2TBE0)	-0.516
DPYSL2 (peptide sequence: IVLEDGTLHVTEGSGR, peptide start residue: 452) (UniProt Q16555)	-0.283
CRY1 (peptide sequence: SSMGTGLSGGK, peptide start residue: 555) (UniProt Q16526)	-0.2
SART3 (peptide sequence: YKPYEEALLQAEAPR, peptide start residue: 295) (UniProt Q15020)	-0.471
UniProt Q1ED39 (peptide sequence: THKVDLGLPEKK, peptide start residue: 5)	0.239
UBE2V2 (peptide sequence: AVSTGVKVPR, peptide start residue: 2) (UniProt Q15819)	0.0802
UniProt Q309B1 (peptide sequence: LQEENRK, peptide start residue: 388)	0.251

Target	log2 fold change
CSPP1 (peptide sequence: ANEEVGISNLK, peptide start residue: 279) (UniProt Q1MSJ5)	-0.306
EML3 (peptide sequence: RNSSSSSSPSERPR, peptide start residue: 154) (UniProt Q32P44)	1.89
UniProt Q15327 (peptide sequence: QREAELK, peptide start residue: 65)	0.0175
PSMD6 (peptide sequence: VNEIVETNRPDSK, peptide start residue: 350) (UniProt Q15008)	-0.995
CLEC16A (peptide sequence: IMNNAAQPDGK, peptide start residue: 546) (UniProt Q2KHT3)	-0.298
PFKFB3 (peptide sequence: QENVLVICHQAVLR, peptide start residue: 380) (UniProt Q16875)	-0.744
MAPRE2 (peptide sequence: SSPAAKPGSTPSRPSSAK, peptide start residue: 208) (UniProt Q15555)	-0.0933
UniProt Q15329 (peptide sequence: AAADTLAVR, peptide start residue: 78)	-0.178
TEAD2 (peptide sequence: KQVSSHIQVLAR, peptide start residue: 88) (UniProt Q15562)	0.235
LARS2 (peptide sequence: VYTISDTIAR, peptide start residue: 104) (UniProt Q15031)	0.217
SHB (peptide sequence: TWSPTACGGKK, peptide start residue: 209) (UniProt Q15464)	-0.517
SAFB (peptide sequence: ELPEQLQEHAIEDK, peptide start residue: 173) (UniProt Q15424)	0.263
RRS1 (peptide sequence: KTNLVWDEVSGQWRR, peptide start residue: 128) (UniProt Q15050)	-1.84
CYP51A1 (peptide sequence: YLQDNPASGEK, peptide start residue: 432) (UniProt Q16850)	0.102
UniProt Q15543 (peptide sequence: KAFDEANYGS, peptide start residue: 115)	0.311
C2orf68 (peptide sequence: HTPAPTRPR, peptide start residue: 55) (UniProt Q2NKX9)	0.379
STIL (peptide sequence: NITNEVLQTK, peptide start residue: 1197) (UniProt Q15468)	-0.363
SEC23A (peptide sequence: HLLQAPVDDAQEILHSR, peptide start residue: 683) (UniProt Q15436)	0.445

Three records picked at random from the list so far:
Target	log2 fold change
UniProt Q2QGD7 (peptide sequence: GGQHGGGPGPLR, peptide start residue: 14)	-1.02
UniProt Q1ED39 (peptide sequence: THKVDLGLPEKK, peptide start residue: 5)	0.239
LARS2 (peptide sequence: VYTISDTIAR, peptide start residue: 104) (UniProt Q15031)	0.217
